According to the supplement of paper PMC12819154, “High-throughput peptide-centric local stability assay extends protein–ligand identification to membrane proteins, tissues and bacteria” (Nature Structural & Molecular Biology, 2025):
Some of the results follow. Small differences around the control level are noise.

The chains behind the UniProt entries cited, without tags or fusion partners. Where a name states a change or a piece, a line headed by the entry shows the natural chain unless it says otherwise.
UniProt Q8N5C7: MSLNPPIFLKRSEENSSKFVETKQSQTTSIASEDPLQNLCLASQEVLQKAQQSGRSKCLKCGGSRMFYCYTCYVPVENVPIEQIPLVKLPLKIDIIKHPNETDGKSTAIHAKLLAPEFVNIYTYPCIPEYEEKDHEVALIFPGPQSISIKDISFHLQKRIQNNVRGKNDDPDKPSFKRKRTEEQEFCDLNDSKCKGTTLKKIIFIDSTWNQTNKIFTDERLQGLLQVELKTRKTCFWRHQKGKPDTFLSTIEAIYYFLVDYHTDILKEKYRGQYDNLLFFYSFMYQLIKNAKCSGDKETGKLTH
UniProt Q8NEF9: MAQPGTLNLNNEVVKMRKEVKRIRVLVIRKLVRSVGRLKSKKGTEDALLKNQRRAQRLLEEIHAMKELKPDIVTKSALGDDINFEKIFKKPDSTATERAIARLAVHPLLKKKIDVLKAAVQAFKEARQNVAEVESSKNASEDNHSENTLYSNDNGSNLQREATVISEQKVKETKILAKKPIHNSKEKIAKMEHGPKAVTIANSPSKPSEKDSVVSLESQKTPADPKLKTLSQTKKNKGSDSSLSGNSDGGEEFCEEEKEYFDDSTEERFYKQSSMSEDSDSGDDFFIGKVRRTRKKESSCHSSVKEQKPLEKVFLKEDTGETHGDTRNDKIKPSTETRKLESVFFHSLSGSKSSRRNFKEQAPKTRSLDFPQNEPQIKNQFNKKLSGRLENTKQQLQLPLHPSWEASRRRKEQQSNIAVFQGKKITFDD
UniProt Q8N4U5: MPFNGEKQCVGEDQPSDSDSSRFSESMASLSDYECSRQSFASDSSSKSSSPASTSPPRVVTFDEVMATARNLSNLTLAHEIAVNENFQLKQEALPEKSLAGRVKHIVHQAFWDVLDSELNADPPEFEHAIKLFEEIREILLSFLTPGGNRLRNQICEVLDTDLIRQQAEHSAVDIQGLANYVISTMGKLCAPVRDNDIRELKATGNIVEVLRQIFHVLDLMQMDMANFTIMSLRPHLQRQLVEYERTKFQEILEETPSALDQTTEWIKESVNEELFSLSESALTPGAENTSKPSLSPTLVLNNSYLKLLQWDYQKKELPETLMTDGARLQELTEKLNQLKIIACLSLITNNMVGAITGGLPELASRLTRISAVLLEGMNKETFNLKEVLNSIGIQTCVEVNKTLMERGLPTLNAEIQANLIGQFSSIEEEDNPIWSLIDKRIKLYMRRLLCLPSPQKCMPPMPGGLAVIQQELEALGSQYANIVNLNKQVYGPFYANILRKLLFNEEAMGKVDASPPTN
UniProt Q8NDV7: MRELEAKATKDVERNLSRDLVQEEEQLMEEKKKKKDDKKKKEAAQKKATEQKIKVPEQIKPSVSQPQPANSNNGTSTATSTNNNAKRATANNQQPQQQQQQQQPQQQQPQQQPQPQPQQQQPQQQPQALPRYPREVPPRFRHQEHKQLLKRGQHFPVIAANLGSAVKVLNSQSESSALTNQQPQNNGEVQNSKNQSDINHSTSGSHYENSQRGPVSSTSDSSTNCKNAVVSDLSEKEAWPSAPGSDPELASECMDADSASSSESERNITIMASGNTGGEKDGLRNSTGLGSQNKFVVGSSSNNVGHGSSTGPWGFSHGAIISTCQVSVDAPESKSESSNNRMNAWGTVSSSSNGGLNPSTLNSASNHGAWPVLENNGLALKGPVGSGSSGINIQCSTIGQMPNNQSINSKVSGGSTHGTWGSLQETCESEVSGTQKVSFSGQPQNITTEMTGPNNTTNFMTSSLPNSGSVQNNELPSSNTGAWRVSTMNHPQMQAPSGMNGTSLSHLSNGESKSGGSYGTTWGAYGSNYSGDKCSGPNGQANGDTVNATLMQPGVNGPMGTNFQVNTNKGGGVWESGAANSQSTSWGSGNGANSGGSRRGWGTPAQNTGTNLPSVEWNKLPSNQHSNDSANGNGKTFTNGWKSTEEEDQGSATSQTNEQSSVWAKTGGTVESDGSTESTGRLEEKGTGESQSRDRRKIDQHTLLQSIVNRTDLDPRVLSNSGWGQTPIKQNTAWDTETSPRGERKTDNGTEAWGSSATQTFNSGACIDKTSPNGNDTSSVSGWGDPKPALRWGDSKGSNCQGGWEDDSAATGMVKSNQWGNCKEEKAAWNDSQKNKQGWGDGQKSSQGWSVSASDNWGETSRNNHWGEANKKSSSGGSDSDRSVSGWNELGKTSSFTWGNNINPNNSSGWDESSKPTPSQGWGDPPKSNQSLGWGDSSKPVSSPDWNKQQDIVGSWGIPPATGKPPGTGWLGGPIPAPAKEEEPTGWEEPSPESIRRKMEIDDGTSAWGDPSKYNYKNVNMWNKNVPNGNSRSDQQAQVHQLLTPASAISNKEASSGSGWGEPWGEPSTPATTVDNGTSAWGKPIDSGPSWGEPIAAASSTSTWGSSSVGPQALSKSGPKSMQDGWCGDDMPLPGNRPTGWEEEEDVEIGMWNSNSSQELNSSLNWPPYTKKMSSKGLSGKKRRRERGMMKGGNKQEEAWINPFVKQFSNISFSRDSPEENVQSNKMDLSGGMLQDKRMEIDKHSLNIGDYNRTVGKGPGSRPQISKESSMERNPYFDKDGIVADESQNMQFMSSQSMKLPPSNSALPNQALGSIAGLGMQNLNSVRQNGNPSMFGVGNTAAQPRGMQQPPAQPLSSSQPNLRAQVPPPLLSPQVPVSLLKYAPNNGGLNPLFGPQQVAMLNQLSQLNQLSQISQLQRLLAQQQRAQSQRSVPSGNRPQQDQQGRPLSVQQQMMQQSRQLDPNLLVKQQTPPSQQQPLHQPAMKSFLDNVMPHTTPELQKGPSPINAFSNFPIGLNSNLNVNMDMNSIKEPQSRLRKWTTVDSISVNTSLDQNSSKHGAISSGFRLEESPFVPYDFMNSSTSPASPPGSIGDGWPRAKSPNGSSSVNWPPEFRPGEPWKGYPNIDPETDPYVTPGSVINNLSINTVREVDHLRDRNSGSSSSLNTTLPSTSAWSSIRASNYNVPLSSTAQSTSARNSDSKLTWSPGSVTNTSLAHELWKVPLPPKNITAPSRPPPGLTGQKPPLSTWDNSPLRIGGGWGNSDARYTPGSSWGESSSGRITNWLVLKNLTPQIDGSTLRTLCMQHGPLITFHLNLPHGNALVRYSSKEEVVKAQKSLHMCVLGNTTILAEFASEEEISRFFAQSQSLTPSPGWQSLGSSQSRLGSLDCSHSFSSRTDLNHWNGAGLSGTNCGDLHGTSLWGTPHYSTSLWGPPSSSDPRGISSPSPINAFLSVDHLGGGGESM
UniProt Q8NHP6: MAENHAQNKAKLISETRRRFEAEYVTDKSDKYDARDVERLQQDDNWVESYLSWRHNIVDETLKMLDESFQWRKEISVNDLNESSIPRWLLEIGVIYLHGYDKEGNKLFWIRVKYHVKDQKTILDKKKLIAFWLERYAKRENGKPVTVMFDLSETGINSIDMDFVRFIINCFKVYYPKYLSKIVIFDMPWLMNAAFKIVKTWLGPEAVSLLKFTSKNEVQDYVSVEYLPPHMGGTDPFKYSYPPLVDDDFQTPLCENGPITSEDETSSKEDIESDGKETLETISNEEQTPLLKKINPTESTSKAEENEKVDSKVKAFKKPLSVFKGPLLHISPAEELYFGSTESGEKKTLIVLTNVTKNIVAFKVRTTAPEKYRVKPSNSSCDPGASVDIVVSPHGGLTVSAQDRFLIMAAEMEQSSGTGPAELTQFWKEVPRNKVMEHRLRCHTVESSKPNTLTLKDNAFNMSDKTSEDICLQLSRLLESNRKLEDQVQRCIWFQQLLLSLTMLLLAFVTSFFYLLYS
UniProt Q8NEZ5: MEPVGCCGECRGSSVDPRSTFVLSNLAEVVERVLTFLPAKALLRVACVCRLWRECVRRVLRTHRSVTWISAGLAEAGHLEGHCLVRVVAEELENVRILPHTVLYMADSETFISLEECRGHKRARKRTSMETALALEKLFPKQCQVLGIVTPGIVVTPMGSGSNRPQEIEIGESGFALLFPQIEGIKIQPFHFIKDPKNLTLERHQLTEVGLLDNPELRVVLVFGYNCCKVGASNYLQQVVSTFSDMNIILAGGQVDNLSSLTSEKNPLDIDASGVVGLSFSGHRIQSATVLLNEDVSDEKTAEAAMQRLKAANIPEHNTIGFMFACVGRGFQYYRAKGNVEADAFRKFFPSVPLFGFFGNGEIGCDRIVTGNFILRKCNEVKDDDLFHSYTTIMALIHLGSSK
UniProt Q8N5M4: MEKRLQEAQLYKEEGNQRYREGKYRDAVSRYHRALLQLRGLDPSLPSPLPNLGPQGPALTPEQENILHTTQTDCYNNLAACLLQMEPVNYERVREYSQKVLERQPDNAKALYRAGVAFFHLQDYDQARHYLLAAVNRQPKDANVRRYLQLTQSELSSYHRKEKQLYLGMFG
UniProt Q8TBC4: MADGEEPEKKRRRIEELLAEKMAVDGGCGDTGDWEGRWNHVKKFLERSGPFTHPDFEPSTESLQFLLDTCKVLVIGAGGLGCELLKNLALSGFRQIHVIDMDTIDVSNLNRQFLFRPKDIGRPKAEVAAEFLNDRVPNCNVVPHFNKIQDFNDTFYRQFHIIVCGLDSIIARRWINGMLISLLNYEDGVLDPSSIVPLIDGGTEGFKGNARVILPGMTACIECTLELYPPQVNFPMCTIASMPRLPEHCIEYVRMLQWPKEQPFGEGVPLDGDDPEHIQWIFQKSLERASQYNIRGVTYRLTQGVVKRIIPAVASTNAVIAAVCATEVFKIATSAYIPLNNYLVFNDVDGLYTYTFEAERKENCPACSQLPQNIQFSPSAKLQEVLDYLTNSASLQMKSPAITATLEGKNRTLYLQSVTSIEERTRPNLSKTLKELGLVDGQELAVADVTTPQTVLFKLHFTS
UniProt Q8N653: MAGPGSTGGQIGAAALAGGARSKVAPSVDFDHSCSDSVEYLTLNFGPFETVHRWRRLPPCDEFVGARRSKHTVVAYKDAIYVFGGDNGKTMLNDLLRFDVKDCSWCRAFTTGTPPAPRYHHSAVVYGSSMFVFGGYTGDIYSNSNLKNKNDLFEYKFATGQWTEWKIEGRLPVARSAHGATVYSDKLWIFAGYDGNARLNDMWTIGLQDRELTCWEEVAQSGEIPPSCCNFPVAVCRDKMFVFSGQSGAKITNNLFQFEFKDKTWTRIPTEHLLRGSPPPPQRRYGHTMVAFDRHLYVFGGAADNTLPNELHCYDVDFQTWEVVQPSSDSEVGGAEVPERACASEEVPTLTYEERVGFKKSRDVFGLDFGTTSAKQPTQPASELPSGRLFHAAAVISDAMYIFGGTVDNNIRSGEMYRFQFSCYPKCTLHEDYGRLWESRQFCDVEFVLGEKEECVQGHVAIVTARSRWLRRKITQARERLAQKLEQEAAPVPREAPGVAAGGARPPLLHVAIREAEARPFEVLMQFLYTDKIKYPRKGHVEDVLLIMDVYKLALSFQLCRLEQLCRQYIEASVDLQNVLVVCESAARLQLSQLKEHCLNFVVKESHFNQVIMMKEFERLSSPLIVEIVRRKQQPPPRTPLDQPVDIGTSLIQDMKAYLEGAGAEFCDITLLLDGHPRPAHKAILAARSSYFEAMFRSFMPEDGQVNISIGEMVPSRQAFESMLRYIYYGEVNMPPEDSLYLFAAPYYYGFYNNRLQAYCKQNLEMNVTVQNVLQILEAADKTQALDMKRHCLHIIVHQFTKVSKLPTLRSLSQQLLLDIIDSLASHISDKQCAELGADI

Compound: CN[C@@H]1C[C@H]2O[C@@](C)([C@@H]1OC)n1c3ccccc3c3c4c(c5c6ccccc6n2c5c31)C(=O)NC4 [staurosporine]
Test: log2 fold change of tryptic peptide abundance, ligand vs vehicle (limited proteolysis) (log2 ratio); higher = more trypsin-susceptible (destabilized)
Details: ligand concentration: 20 uM; sample: K562 cleared lysate; digestion: 4 min, 22 C (HT-PELSA RT4min, Orbitrap Astral)

Target | log2 fold change
DTWD1 (peptide sequence: IIFIDSTWNQTNK, peptide start residue: 202) (UniProt Q8N5C7) | -0.83
SRFBP1 (peptide sequence: QQLQLPLHPSWEASR, peptide start residue: 394) (UniProt Q8NEF9) | 0.332
TCP11L2 (peptide sequence: LLQWDYQK, peptide start residue: 308) (UniProt Q8N4U5) | -0.392
TNRC6A (peptide sequence: IGGGWGNSDAR, peptide start residue: 1754) (UniProt Q8NDV7) | -0.317
MOSPD2 (peptide sequence: TLIVLTNVTK, peptide start residue: 348) (UniProt Q8NHP6) | 0.105
FBXO22 (peptide sequence: VVAEELENVR, peptide start residue: 87) (UniProt Q8NEZ5) | -0.168
TTC9C (peptide sequence: YLQLTQSELSSYHR, peptide start residue: 147) (UniProt Q8N5M4) | -0.124
UBA3 (peptide sequence: ADGEEPEKK, peptide start residue: 2) (UniProt Q8TBC4) | -0.171
LZTR1 (peptide sequence: LEQEAAPVPR, peptide start residue: 485) (UniProt Q8N653) | -0.16
